In paper PMC7819943, “Rice protein-binding microarrays: a tool to detect cis-acting elements near promoter regions in rice”:
This is one part of the list.

Each sequence was assayed against T1, OsSMF1 (Oryza sativa, UniProt Q6ZLB0 1-436) (assay: protein-binding microarray (RPBM); PBS, 2% BSA, 51.3 ng/ul salmon testes DNA, 50 uM zinc acetate, 200 nM TF, 25 C, 1 h; high values mean tight binding). Conditions: protein: recombinant; tags: N-terminal polyhistidine and DsRed monomer fusion (pET32a); chain copies: 2; label: CyDye5-dUTP incorporated in the synthesized complementary strand; 3' TTTTT single-stranded linker to array surface; dsDNA, one strand shown.
T1 sequence: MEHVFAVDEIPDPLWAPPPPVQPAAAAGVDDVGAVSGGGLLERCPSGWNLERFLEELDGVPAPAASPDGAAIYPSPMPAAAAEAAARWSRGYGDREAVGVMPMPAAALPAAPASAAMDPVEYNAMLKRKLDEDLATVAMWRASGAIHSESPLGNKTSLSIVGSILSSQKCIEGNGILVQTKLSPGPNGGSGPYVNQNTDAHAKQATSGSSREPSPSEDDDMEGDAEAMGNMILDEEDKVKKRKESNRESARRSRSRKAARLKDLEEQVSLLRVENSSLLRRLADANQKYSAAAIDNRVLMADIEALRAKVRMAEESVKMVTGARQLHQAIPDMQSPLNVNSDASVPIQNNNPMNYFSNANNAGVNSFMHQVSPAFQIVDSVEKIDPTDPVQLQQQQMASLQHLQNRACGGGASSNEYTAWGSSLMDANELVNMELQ
Method in brief: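 Per-feature fluorescence intensity (arbitrary units), read on an Axon 4000B scanner, is the binding signal. Transcription factors carrying an N-terminal polyhistidine tag and DsRed fusion were expressed in E. coli BL21-CodonPlus and purified on Ni–NTA. A custom Agilent array, made double-stranded by primer extension with Cy5-dUTP and blocked with 2% BSA, was incubated with 200 nM protein in PBS, 2% BSA, salmon testes DNA and 50 µM zinc acetate at 25 °C for 1 h and then washed.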

Sequence | binding signal
GGCCACCGTGCGTCTGCCGCGTCGGCACCCGTGCAGGGTTCGGAGTCACCTAGTGCAG | 8060 fluorescence intensity (a.u.)
CACCTCCTCCCTCGCCGCCGCCGCCGCCGCTGACTCCCACCGGAGTCACCTAGTGCAG | 4820 fluorescence intensity (a.u.)
AATCCACTATTCACAGGATGAGAATCCAGAGCTGAAGCTTCGGAGTCACCTAGTGCAG | 14400 fluorescence intensity (a.u.)
ACAACTGAAAAGGATGAGGCGCTTACAACCAAAATGCAAGCGGAGTCACCTAGTGCAG | 7450 fluorescence intensity (a.u.)
CCCTCTTTCCCATCTGTGTCACCTTCCACCGCTGTTCAAACGGAGTCACCTAGTGCAG | 4990 fluorescence intensity (a.u.)
GCCCGGTCAGTGGTGACTCAGCGAGATGGGCCCGTTTTGTCGGAGTCACCTAGTGCAG | 6830 fluorescence intensity (a.u.)
CTAATATATTGACGTGTAATTCTTTTGTGTGTTTGTGAAACGGAGTCACCTAGTGCAG | 6530 fluorescence intensity (a.u.)
CACGGCATACGCACCGCACCGCCTTAATTATACTACTAATCGGAGTCACCTAGTGCAG | 12500 fluorescence intensity (a.u.)
CGCCAGCCACCTCCGGCGCCGTTCGCCAGCCACCACGCGCCGGAGTCACCTAGTGCAG | 37900 fluorescence intensity (a.u.)
GTCGTGTCTGACGTCGTATACTCGTGTGGTGTATTCATATCGGAGTCACCTAGTGCAG | 6180 fluorescence intensity (a.u.)
GCGAATAAGATGATGGACGCGTTCGTCAACAAGCCACGGTCGGAGTCACCTAGTGCAG | 3380 fluorescence intensity (a.u.)
CCCACACAGATCAGGGCCAGCTTACCGTCGGTGCAGGAAACGGAGTCACCTAGTGCAG | 3340 fluorescence intensity (a.u.)
CGTCCGCTGTGGTGACGCTGACGGCCGCGTGACATGGCTTCGGAGTCACCTAGTGCAG | 12500 fluorescence intensity (a.u.)
AATACGATTAACGTGCTAAGATGACGTCAGCTGAGGATAGCGGAGTCACCTAGTGCAG | 10400 fluorescence intensity (a.u.)
TATTATACAAATTACCACATCACATTTATATTCGTACTATCGGAGTCACCTAGTGCAG | 25900 fluorescence intensity (a.u.)
AATATAGCTAATTATTAGCTCTTAAAATTAACACATCATGCGGAGTCACCTAGTGCAG | 3820 fluorescence intensity (a.u.)
TTCCGCACCATCCATACAGACTGGCGTGTAGGCCCCACCTCGGAGTCACCTAGTGCAG | 3530 fluorescence intensity (a.u.)
TGTGATCCATGCCTCCAGCAGGACATCATGATTAGCATGTCGGAGTCACCTAGTGCAG | 3850 fluorescence intensity (a.u.)
AGGTGGTGAAGTGGAGTGGAGTGGAGAGTATCTTCTTCTTCGGAGTCACCTAGTGCAG | 3340 fluorescence intensity (a.u.)
CCACCGCTGACGCCATCACGTCGTCAGTGATAACGGCGACCGGAGTCACCTAGTGCAG | 6440 fluorescence intensity (a.u.)
CCCACCCGACAGTGACACTCCATCATCATGACATCACGAGCGGAGTCACCTAGTGCAG | 10700 fluorescence intensity (a.u.)
ATGACAGCATGCACCGATCGCTTCCATAGACGACGTCACACGGAGTCACCTAGTGCAG | 3280 fluorescence intensity (a.u.)
GCACTTCCTATTTAAGCACCGCCGCGGGTGACACCGTCCCCGGAGTCACCTAGTGCAG | 3330 fluorescence intensity (a.u.)

As a working copy, some entries already given.
Sequence | binding signal
CACCTCCTCCCTCGCCGCCGCCGCCGCCGCTGACTCCCACCGGAGTCACCTAGTGCAG | 4820 fluorescence intensity (a.u.)
AATCCACTATTCACAGGATGAGAATCCAGAGCTGAAGCTTCGGAGTCACCTAGTGCAG | 14400 fluorescence intensity (a.u.)
